The chains behind the UniProt entries cited, without tags or fusion partners.
UniProt Q03195: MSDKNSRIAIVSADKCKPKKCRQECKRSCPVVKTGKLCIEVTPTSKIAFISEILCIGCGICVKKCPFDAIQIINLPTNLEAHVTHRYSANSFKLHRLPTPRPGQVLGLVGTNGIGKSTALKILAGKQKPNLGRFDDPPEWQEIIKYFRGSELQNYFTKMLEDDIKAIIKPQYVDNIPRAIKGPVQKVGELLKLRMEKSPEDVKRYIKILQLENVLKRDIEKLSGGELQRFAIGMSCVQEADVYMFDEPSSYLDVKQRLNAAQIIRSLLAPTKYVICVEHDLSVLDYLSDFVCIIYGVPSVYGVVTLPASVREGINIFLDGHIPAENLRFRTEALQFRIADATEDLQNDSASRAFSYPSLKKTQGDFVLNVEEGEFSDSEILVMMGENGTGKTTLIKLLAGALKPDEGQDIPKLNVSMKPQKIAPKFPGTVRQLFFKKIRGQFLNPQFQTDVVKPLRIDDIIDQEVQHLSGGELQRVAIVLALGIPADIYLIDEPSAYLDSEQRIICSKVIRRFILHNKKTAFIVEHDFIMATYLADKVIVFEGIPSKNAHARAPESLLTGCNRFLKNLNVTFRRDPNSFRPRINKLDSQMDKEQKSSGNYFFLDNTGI
UniProt Q05775: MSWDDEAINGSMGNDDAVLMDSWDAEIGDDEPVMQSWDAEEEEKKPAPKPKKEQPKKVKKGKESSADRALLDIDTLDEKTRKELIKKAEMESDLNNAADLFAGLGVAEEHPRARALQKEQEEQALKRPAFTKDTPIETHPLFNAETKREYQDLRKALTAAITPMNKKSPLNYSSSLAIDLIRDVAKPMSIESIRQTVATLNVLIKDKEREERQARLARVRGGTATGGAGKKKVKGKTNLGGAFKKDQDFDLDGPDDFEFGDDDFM

According to paper doi:10.1101/2020.07.09.194902:

Molecular target: TAP-tagged ABCE1 (Rli1p) (S. cerevisiae) (UniProt Q03195)
Assay: affinity purification with mass spectrometry

binding: binds
Substance: eIF3j (Hcr1 in yeast) (from UniProt Q05775 1-265)

Results are given in words; binding and its absence hold for the method and conditions named. Binding seen in cells or lysates may run through a third protein. These calls come from enrichment with a bait or labelling near it, and not all partners need be listed.
